Source: article PMC5996148
The list shows a part of the results. For some assays here: Construct or isoform of the protein are uncertain.

Chains of the proteins cited; added tags and fusions are not shown. Lines headed by an entry give the natural chain unless they say otherwise; changes in a name come on top.
UniProt P09471: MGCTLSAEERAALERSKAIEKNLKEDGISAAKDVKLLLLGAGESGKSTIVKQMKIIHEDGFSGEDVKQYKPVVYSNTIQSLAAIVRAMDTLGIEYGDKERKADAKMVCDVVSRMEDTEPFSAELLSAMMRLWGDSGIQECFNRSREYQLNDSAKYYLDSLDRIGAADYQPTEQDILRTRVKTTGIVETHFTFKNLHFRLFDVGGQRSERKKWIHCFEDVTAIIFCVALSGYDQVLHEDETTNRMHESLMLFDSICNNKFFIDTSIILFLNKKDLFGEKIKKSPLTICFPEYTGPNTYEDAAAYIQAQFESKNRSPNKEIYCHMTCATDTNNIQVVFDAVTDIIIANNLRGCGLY

Assays:
Test in all cases: protein microarray (ProtoArray v5.0), streptavidin-Alexa Fluor 647
Details in all cases: 3'-biotin; 20 mM Tris (pH 7.5), 5 mM MgCl2, 100 mM KCl, 0.1% Tween-20, A/T-rich and random oligonucleotide blockers; temperature not stated; high values mean tight binding
GNAO1 = GNAO1 (UniProt P09471)
GNG13 (human) = system: GNG13 (human)
GNG4 (human) = system: GNG4 (human)
GNGT1 (human) = system: GNGT1 (human)
GNMT (human) = system: GNMT (human)
GNPTAB (human) = system: GNPTAB (human)
GOLPH2 (human) = system: GOLPH2 (human)
GOSR1 (human) = system: GOSR1 (human)
GPD1 (human) = system: GPD1 (human)
[1] = system: GPI transamidase component PIG-S (human)
GPLD1 (human) = system: GPLD1 (human)
GPR108 (human) = system: GPR108 (human)
GPRC5C (human) = system: GPRC5C (human)
GPSM3 (human) = system: GPSM3 (human)
GPX1 (human) = system: GPX1 (human)
GSTA1 (human) = system: GSTA1 (human)
GSTM3 (human) = system: GSTM3 (human)
GSTZ1 (human) = system: GSTZ1 (human)
GTF2E1 (human) = system: GTF2E1 (human)
GTF2H5 (human) = system: GTF2H5 (human)

## GGGGACAGGGGTATGGGGAGGGG [G4-3 biotinylated (CtG)]
GNAO1
  binding signal: -0.301 z-score
GNG13 (human)
  binding signal: -0.344 z-score
GNG4 (human)
  binding signal: -0.327 z-score
GNGT1 (human)
  binding signal: -0.326 z-score
GNMT (human)
  binding signal: -0.321 z-score
GNPTAB (human)
  binding signal: -0.305 z-score
GOLPH2 (human)
  binding signal: -0.305 z-score
GOSR1 (human)
  binding signal: -0.328 z-score
GPD1 (human)
  binding signal: -0.341 z-score
[1]
  binding signal: -0.321 z-score
GPLD1 (human)
  binding signal: -0.316 z-score
GPR108 (human)
  binding signal: -0.315 z-score
GPRC5C (human)
  binding signal: -0.318 z-score
GPSM3 (human)
  binding signal: -0.339 z-score
GPX1 (human)
  binding signal: -0.319 z-score
GSTA1 (human)
  binding signal: -0.325 z-score
GSTM3 (human)
  binding signal: -0.341 z-score
GSTZ1 (human)
  binding signal: -0.311 z-score
GTF2E1 (human)
  binding signal: -0.302 z-score
GTF2H5 (human)
  binding signal: -0.336 z-score
